# Article doi:10.1101/2021.10.21.465333
# Chains of the proteins cited; added tags and fusions are not shown.
# UniProt P54253: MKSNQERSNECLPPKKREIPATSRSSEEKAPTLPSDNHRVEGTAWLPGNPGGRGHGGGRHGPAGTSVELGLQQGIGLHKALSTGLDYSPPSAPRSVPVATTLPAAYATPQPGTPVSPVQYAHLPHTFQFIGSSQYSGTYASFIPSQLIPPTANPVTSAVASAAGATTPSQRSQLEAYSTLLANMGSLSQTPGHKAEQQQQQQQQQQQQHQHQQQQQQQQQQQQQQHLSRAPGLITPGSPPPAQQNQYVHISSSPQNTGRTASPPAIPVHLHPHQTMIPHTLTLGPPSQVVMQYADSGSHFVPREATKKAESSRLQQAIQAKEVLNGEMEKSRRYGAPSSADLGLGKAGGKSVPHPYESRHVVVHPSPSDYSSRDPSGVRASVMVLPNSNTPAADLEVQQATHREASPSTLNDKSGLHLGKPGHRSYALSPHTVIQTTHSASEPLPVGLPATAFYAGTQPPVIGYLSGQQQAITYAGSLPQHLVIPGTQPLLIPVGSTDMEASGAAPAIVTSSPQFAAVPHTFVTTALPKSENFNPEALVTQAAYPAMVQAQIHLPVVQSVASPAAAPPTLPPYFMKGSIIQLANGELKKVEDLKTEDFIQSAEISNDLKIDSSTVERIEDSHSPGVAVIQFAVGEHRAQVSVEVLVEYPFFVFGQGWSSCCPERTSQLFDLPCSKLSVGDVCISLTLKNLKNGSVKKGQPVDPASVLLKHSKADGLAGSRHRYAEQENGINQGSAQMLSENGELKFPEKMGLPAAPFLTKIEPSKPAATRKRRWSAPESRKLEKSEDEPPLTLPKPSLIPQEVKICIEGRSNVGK
# UniProt Q9NQB0: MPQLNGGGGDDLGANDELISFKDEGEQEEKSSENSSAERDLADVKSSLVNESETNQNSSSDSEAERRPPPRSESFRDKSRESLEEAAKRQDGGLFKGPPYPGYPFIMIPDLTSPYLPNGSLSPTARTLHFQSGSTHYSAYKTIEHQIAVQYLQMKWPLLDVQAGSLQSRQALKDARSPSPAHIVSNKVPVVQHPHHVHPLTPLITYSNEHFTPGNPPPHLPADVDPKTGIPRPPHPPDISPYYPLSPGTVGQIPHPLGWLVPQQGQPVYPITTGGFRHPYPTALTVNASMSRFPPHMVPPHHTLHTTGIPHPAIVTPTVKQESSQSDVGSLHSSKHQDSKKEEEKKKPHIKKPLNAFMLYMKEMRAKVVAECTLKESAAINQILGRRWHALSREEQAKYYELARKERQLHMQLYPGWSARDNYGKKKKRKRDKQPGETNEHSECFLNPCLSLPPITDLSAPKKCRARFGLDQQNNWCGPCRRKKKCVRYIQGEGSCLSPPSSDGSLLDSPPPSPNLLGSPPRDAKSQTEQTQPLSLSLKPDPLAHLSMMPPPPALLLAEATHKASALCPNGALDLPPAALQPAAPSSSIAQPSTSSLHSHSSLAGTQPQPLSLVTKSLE
# UniProt P36402: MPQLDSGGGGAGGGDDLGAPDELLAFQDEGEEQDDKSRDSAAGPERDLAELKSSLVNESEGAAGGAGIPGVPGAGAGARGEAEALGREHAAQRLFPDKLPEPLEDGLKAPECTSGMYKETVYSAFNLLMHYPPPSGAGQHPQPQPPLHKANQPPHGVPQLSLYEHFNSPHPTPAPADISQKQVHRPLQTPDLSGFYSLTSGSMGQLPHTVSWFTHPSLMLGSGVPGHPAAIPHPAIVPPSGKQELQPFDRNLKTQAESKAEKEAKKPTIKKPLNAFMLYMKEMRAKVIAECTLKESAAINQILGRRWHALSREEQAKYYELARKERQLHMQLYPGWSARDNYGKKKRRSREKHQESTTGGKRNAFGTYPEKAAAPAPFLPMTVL
# UniProt Q9UJU2: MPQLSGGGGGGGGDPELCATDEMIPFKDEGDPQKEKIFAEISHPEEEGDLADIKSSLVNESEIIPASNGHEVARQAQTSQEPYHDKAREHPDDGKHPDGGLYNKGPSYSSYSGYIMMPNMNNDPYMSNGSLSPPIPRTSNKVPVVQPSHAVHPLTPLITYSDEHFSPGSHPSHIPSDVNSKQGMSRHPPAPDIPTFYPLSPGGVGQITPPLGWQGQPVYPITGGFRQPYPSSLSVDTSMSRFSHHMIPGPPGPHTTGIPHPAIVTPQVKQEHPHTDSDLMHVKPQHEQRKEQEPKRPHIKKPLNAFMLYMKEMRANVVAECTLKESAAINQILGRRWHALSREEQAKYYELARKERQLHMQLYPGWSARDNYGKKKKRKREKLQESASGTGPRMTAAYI
# UniProt P35222: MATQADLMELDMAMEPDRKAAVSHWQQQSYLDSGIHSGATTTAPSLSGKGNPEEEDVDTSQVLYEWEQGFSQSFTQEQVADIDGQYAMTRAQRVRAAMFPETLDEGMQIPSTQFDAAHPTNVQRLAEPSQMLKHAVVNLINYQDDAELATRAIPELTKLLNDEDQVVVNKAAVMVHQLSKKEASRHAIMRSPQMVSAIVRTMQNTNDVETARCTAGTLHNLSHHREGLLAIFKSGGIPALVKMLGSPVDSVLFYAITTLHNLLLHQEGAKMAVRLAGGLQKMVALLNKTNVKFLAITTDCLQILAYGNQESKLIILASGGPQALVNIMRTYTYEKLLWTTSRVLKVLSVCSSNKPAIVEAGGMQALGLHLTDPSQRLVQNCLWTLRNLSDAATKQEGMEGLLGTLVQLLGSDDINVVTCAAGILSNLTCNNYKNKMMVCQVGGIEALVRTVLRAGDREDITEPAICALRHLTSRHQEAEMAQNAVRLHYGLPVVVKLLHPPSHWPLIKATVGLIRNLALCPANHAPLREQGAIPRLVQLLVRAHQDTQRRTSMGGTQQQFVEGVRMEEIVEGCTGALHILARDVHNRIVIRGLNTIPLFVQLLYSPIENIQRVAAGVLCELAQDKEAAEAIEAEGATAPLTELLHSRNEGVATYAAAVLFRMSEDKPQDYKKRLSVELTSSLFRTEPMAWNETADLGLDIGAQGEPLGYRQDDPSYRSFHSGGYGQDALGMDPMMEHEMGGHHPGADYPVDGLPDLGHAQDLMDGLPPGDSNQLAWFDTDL
# No constants are given. Whether binding was seen depends on the method and setting. Binding seen in cells or lysates may run through a third protein. Some results given as binding are weak or reduced against the parent protein; the word gives no strength.
# Target: GST-ataxin-1 [30Q] (UniProt P54253)
# Experiment: pull-down
row,Molecule,binding
1,TCF4 (from UniProt Q9NQB0 1-619),binds
2,TCF1 (from UniProt P36402 1-384),binds
3,LEF1 (from UniProt Q9UJU2 1-399),binds
4,β-catenin (from UniProt P35222 1-781),no binding
5,"TCF3 (protein, UniProt Q9HCS4 1-588) MPQLGGGGGGGGGGSGGGGGSSAGAAGGGDDLGANDELIPFQDEGGEEQEPSSDSASAQRDLDEVKSSLVNESENQSSSSDSEAERRPQPVRDTFQKPRDYFAEVRRPQDSAFFKGPPYPGYPFLMIPDLSSPYLSNGPLSPGGARTYLQMKWPLLDVPSSATVKDTRSPSPAHLSNKVPVVQHPHHMHPLTPLITYSNDHFSPGSPPTHLSPEIDPKTGIPRPPHPSELSPYYPLSPGAVGQIPHPLGWLVPQQGQPMYSLPPGGFRHPYPALAMNASMSSLVSSRFSPHMVAPAHPGLPTSGIPHPAIVSPIVKQEPAPPSLSPAVSVKSPVTVKKEEEKKPHVKKPLNAFMLYMKEMRAKVVAECTLKESAAINQILGRKWHNLSREEQAKYYELARKERQLHSQLYPTWSARDNYGKKKKRKREKQLSQTQSQQQVQEAEGALASKSKKPCVQYLPPEKPCDSPASSHGSMLDSPATPSAALASPAAPAATHSEQAQPLSLTTKPETRAQLALHSAAFLSAKAAASSSGQMGSQPPLLSRPLPLGSMPTALLASPPSFPATLHAHQALPVLQAQPLSLVTKSAH",binds
